Laboratory results reported in PubChem BioAssay AID330 (DTP/NCI, 2004).
The list shows only some results of the screen, not a fair sample: it is rich in T/C values a quarter to a half above the control, in often repeated tests (any T/C) and in doses without a T/C. Other doses and runs of a compound stand elsewhere. T/C gives the treated animals as a percentage of the vehicle group. Some doses have a count of surviving animals in place of a T/C: the source files T/C as zero there, which appears to mark a toxic dose or a test without result, not a measured value. Some doses without a T/C left all or most animals alive at the check, yet need not have been tolerated: survival well below the control is almost never listed, so the zero probably covers shortened survival too. Counts of survivors are from the toxicity check (mostly the fifth day) where no day follows; animals may have died later. Schedules are NCI's codes, read here as Q, the interval in days (D) or hours (H), X, the number of doses. Some molecules as drawn cover several salts, stereoisomers or complexes of the source; a dose is that of the sample tested. Some entries hold several experiments; their values stand side by side, smallest first. Marks such as (2×) give the number of equal values in this list. Where survival is the endpoint, the PubChem record calls one and a half times the control and up active, and a quarter to a half above the control has no call in these data; cut-offs in other NCI protocols can differ.

Tested on: P388 leukemia ip, CD2F1 mice, survival T/C
Test: NCI In Vivo Anticancer Drug Screen. Data for tumor model P388 Leukemia (intraperitoneal) in CD2F1 (CDF1) mice
Settings: T/C endpoint: median survival time, higher T/C = longer survival
[1] = dose: 200.0 mg/kg/injection, schedule: Q01DX009 (ip), vehicle: saline with Tween-80
[2] = dose: 25.0 mg/kg/injection, schedule: Q01DX009 (ip), vehicle: saline with Tween-80

With Nc1ccc2c(c1)CN1C(=O)c3ccccc3C1=N2 the survivor count (dose: 6.25 mg/kg/injection, schedule: Q01DX009 (ip), vehicle: saline) was 6 of 6, the survivor count (dose: 12.5 mg/kg/injection, schedule: Q01DX009 (ip), vehicle: saline) was 6 of 6 and the T/C (dose: 33.0 mg/kg/injection, schedule: Q01DX009 (ip), vehicle: saline with Tween-80, evaluated on day 29) was 138 % of control. The T/C (dose: 33.0 mg/kg/injection, schedule: Q01DX009 (ip), vehicle: saline with Tween-80, evaluated on day 30) was 131 and 147 % of control, the T/C (dose: 33.0 mg/kg/injection, schedule: Q01DX009 (ip), vehicle: saline with Tween-80, evaluated on day 45) was 99, 103, 105, 114, 115, 118 % of control and the T/C (dose: 33.0 mg/kg/injection, schedule: Q01DX009 (ip), vehicle: saline with Tween-80, evaluated on day 60) was 99 and 100 % of control. For the same compound, the T/C (dose: 33.4 mg/kg/injection, schedule: Q01DX009 (ip), vehicle: saline with Tween-80) was 136 % of control, the T/C (dose: 50.0 mg/kg/injection, schedule: Q01DX009 (ip), vehicle: saline with Tween-80, evaluated on day 29) was 142 % of control and the T/C (dose: 50.0 mg/kg/injection, schedule: Q01DX009 (ip), vehicle: saline with Tween-80, evaluated on day 30) was 112, 118, 133, 156, 158, 161 % of control. The T/C (dose: 50.0 mg/kg/injection, schedule: Q01DX009 (ip), vehicle: saline with Tween-80, evaluated on day 45) was 97, 105, 111, 114, 124, 125 % of control, the T/C (dose: 50.0 mg/kg/injection, schedule: Q01DX009 (ip), vehicle: saline with Tween-80, evaluated on day 60) was 92 and 117 % of control and the T/C (dose: 70.0 mg/kg/injection, schedule: Q01DX009 (ip), vehicle: saline with Tween-80) was 141 % of control. For the same compound, the T/C (dose: 75.0 mg/kg/injection, schedule: Q01DX009 (ip), vehicle: saline with Tween-80, evaluated on day 29) was 148 % of control, the T/C (dose: 75.0 mg/kg/injection, schedule: Q01DX009 (ip), vehicle: saline with Tween-80, evaluated on day 30) was 148, 156, 200 % of control and the T/C (dose: 75.0 mg/kg/injection, schedule: Q01DX009 (ip), vehicle: saline with Tween-80, evaluated on day 45) was 111, 113, 130, 136, 138 % of control (2×). The T/C (dose: 75.0 mg/kg/injection, schedule: Q01DX009 (ip), vehicle: saline with Tween-80, evaluated on day 60) was 100 and 105 % of control, the T/C (dose: 112.0 mg/kg/injection, schedule: Q01DX009 (ip), vehicle: saline with Tween-80, evaluated on day 29) was 120 % of control and the T/C (dose: 112.0 mg/kg/injection, schedule: Q01DX009 (ip), vehicle: saline with Tween-80, evaluated on day 30) was 118 and 169 % of control. The T/C (dose: 112.0 mg/kg/injection, schedule: Q01DX009 (ip), vehicle: saline with Tween-80, evaluated on day 45) was 110, 111, 112, 122 (2×), 130 % of control, the T/C (dose: 112.0 mg/kg/injection, schedule: Q01DX009 (ip), vehicle: saline with Tween-80, evaluated on day 60) was 128 % of control (2×) and the T/C (dose: 169.0 mg/kg/injection, schedule: Q01DX009 (ip), vehicle: saline with Tween-80, evaluated on day 30) was 118 % of control. The T/C (dose: 169.0 mg/kg/injection, schedule: Q01DX009 (ip), vehicle: saline with Tween-80, evaluated on day 45) was 101 and 104 % of control, the T/C (dose: 169.0 mg/kg/injection, schedule: Q01DX009 (ip), vehicle: saline with Tween-80, evaluated on day 60) was 96 % of control and the survivor count [1] was 6 of 6.
CC1=C(Cl)C(=O)c2c(O)cccc2C1=O was tested, and the survivor count (dose: 7.0 mg/kg/injection, schedule: Q01DX005 (ip), vehicle: Klucel + Tween-80) was 5 of 6, the survivor count (dose: 8.0 mg/kg/injection, schedule: Q01DX005 (ip), vehicle: Klucel + Tween-80) was 0 of 6 and the survivor count (dose: 14.0 mg/kg/injection, schedule: Q01DX005 (ip), vehicle: Klucel + Tween-80) was 0 of 6. For the same compound, the survivor count (dose: 28.0 mg/kg/injection, schedule: Q01DX005 (ip), vehicle: Klucel + Tween-80) was 0 of 6 and the survivor count (dose: 56.0 mg/kg/injection, schedule: Q01DX005 (ip), vehicle: Klucel + Tween-80) was 0 of 6.
With CC1=C(C)C2C(=O)NC(=O)NC12 (stereo not given) the survivor count (dose: 400.0 mg/kg/injection, schedule: Q01DX001 (ip), vehicle: Klucel (hydroxypropylcellulose) (HPC)) was 5 of 6.
Cc1ccc(NC(=O)/C(Cl)=C(\Cl)C(=O)O)cc1C was tested, and the survivor count (dose: 30.0 mg/kg/injection, schedule: Q01DX005 (ip), vehicle: saline with Tween-80) was 2 of 6, the survivor count (dose: 60.0 mg/kg/injection, schedule: Q01DX005 (ip), vehicle: saline with Tween-80) was 0 of 6 and the survivor count (dose: 120.0 mg/kg/injection, schedule: Q01DX005 (ip), vehicle: saline with Tween-80) was 0 of 6. For the same compound, the survivor count (dose: 240.0 mg/kg/injection, schedule: Q01DX005 (ip), vehicle: saline with Tween-80) was 0 of 6.
In the case of Cc1cc(C)[s+]s1, the survivor count (dose: 200.0 mg/kg/injection, schedule: Q01DX009 (ip), vehicle: water) is reported as 0 of 6.
With CC1OC2CC(O)C1(O)C1=C2C(O)=C(C(N)=O)C(=N)C1=O (stereo not given) the survivor count (dose: 5.0 mg/kg/injection, schedule: Q01DX009 (ip), vehicle: other) was 6 of 6.
With COc1c(CBr)c(CBr)c(OC)c2c1C(=O)c1ccccc1C2=O the survivor count (dose: 200.0 mg/kg/injection, schedule: Q01DX005 (ip), vehicle: saline with Tween-80) was 4 of 6.
O=C1C(CC=C(Cl)Cl)=C(OC2OC(CO)C(O)C(O)C2O)C(=O)c2ccccc21 (stereo not given) was tested, and the survivor count [2] was 5 of 6.
CCC(=O)N(C)[C@@H](C)C(=O)O[C@H]1CC(=O)N(C)c2cc(cc(OC)c2Cl)C/C(C)=C/C=C[C@@H](OC)[C@@]2(O)C[C@H](OC(=O)N2)[C@@H](C)[C@@H]2O[C@@]12C was tested, and the T/C (dose: 0.4 micrograms/kg/injection, schedule: Q01DX009 (ip), vehicle: saline) was 130 % of control, the T/C (dose: 0.8 micrograms/kg/injection, schedule: Q01DX009 (ip), vehicle: saline) was 136 % of control and the T/C (dose: 1.6 micrograms/kg/injection, schedule: Q01DX009 (ip), vehicle: saline) was 142 % of control. For the same compound, the T/C (dose: 12.5 micrograms/kg/injection, schedule: Q01DX009 (ip), vehicle: saline + alcohol) was 126 % of control, the survivor count (dose: 25.0 micrograms/kg/injection, schedule: Q01DX009 (ip), vehicle: saline + alcohol) was 10 of 10 and the survivor count (dose: 50.0 micrograms/kg/injection, schedule: Q01DX009 (ip), vehicle: saline + alcohol) was 7 of 10. The survivor count (dose: 100.0 micrograms/kg/injection, schedule: Q01DX009 (ip), vehicle: saline + alcohol) was 7 of 10 and the survivor count (dose: 200.0 micrograms/kg/injection, schedule: Q01DX009 (ip), vehicle: saline + alcohol) was 5 of 10.
With CN(S(=O)(=O)CC(F)(F)F)S(=O)(=O)C(F)(F)F the T/C (dose: 3.12 mg/kg/injection, schedule: Q01DX009 (ip), vehicle: saline) was 137 % of control.
O=C(Nc1cccc2c(OC(=O)C(Cl)Cl)c(N=Nc3ccc(S(=O)(=O)Nc4nccs4)cc3)cc(N=Nc3ccc(S(=O)(=O)Nc4nccs4)cc3)c12)C(Cl)Cl (tested in a mixture with another compound) was tested, and the T/C (dose: 3.12 mg/kg/injection, schedule: Q01DX009 (ip), vehicle: saline with Tween-80) was 126 % of control, the T/C (dose: 6.25 mg/kg/injection, schedule: Q01DX009 (ip), vehicle: saline with Tween-80) was 133 % of control and the T/C (dose: 12.5 mg/kg/injection, schedule: Q01DX009 (ip), vehicle: saline with Tween-80) was 128 and 134 % of control. For the same compound, the T/C [2] was 136 % of control, the survivor count [2] was 6 of 6 and the survivor count (dose: 50.0 mg/kg/injection, schedule: Q01DX009 (ip), vehicle: saline with Tween-80) was 4 of 6, 5 of 6, 6 of 6 (2×). For the same compound, the survivor count (dose: 100.0 mg/kg/injection, schedule: Q01DX009 (ip), vehicle: saline with Tween-80) was 1 of 6, 3 of 6, 5 of 6, the survivor count [1] was 0 of 6 (2×), 4 of 6, 6 of 6 and the survivor count (dose: 400.0 mg/kg/injection, schedule: Q01DX009 (ip), vehicle: saline with Tween-80) was 1 of 6 and 2 of 6.
In the case of c1cc2c3c(cccc3c1)-c1nc3ccccc3nc1-2, the survivor count (dose: 200.0 mg/kg/injection, schedule: Q01DX009 (ip), vehicle: Klucel (hydroxypropylcellulose) (HPC)) is reported as 4 of 6.
In the case of CN1C(=O)N(C)C(=O)C(Cl)(Cl)C1=O, the survivor count (dose: 50.0 mg/kg/injection, schedule: Q01DX005 (ip), vehicle: Klucel (hydroxypropylcellulose) (HPC)) is reported as 5 of 6, the survivor count (dose: 100.0 mg/kg/injection, schedule: Q01DX005 (ip), vehicle: Klucel (hydroxypropylcellulose) (HPC)) is reported as 0 of 6 and the survivor count (dose: 200.0 mg/kg/injection, schedule: Q01DX005 (ip), vehicle: Klucel (hydroxypropylcellulose) (HPC)) is reported as 0 of 6.
